From PMC3244426
Results are given in words; binding and its absence hold for the method and conditions named. Binding seen in cells or lysates may run through a third protein. Some results given as binding are weak or reduced against the parent protein; the word gives no strength.

Protein sequences, listed by entry. Tags and fused reporters are not part of them. Residues count along the entry.
UniProt Q08857: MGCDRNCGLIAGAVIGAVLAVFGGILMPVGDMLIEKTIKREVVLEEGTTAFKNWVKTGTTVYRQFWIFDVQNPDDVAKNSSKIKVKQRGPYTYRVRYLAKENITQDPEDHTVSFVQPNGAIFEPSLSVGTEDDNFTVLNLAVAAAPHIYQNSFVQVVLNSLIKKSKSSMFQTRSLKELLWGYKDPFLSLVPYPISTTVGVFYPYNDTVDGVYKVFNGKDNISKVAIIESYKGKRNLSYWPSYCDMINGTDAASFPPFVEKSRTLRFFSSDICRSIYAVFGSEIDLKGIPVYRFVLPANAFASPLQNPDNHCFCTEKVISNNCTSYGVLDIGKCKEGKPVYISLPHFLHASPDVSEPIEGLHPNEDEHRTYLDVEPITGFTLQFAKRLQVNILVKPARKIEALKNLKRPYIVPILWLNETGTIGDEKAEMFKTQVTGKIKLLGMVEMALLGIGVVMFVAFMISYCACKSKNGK
UniProt P27512, residues 20-289: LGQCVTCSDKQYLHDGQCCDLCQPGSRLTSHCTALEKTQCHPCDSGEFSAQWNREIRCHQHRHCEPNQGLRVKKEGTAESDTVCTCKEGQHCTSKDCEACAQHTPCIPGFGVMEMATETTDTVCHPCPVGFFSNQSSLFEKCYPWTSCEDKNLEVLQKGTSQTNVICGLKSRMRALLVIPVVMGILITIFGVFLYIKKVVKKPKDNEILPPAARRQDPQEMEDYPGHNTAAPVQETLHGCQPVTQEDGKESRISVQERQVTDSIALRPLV

Experiments:
[1] = biological target: T1, CD9 tetraspanin (mouse (endogenous in peritoneal macrophages)) (UniProt P40240); experiment: co-IP; mouse peritoneal macrophages treated with dithiobis-succinimidylpropionate, lysed in 1% CHAPS, 50 mM Tris-HCl pH 7.5, 150 mM NaCl; 750 µg protein with anti-CD36 IgA or anti-CD9 IgG beads overnight at 4°C; immunoblot; cd36 null cells and isotype control antibodies as controls
T1 sequence: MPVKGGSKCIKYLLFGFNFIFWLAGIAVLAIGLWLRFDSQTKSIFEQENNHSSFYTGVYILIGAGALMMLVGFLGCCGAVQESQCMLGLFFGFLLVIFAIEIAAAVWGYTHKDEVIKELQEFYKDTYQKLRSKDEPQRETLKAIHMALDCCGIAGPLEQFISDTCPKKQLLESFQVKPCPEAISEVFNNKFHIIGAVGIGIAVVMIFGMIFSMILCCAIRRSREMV

[2] = biological target: CD36 (mouse (endogenous in peritoneal macrophages)) (UniProt Q08857); experiment: proximity ligation; fixed mouse peritoneal macrophages; anti-CD36 with anti-CD9, anti-CD31 or anti-CD40 primary antibodies, species specific DNA-conjugated secondary antibodies (Duolink, Olink); spots when <40 nm apart; cd36 null cells as control

binding [1] | binding [2] | Substance
binds | – | CD36 (from UniProt Q08857 1-472) (receptor)
– | no binding | CD40 (from UniProt P27512 20-289) (receptor)
